# From US20220306757A1 (HANGZHOU SUMGEN BIOTECH, published 2022)
# By UniProt entry, the sequences of proteins in these tests, tags left out.
# UniProt Q02223: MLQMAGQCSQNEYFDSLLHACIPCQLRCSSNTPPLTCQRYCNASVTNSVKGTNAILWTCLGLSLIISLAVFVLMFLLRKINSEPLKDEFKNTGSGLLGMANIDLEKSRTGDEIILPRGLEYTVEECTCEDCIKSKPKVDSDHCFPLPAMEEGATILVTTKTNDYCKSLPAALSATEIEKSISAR
# These are yes or no findings as the source states them, for the method shown. Some entries that bind do so weakly or less than the wild type.
# B1: SG1116 antibody (antibody, human IgG1, V domains shown)
# VH: QVQLVQSGPELKKPGETVKISCKASGYTFSRYSMNWVRQAPGKGLEWMGRINTGSGAPIYADDFKGRFTFSVDTSASTAYLVINNLKSEDTASYFCSNDYNYSLDHWGQGTAVTVSS
# VL: DIVLTQSPPSLAMSLGKRATISCRASESVTILGSHLIYWYQQKPGQPPTLLIQLASNVQTGVPARFSGSGSRTDFTLTIDPVEEDDVAVYYCLQSRTIPRTFGGGTKLEIK
# notes: also called antibody SG1116; SGT116
# How the values were obtained:
# [1] = molecular target: BCMA on CHOS cells stably expressing BCMA (CHOS-BCMA) (UniProt Q02223); assay: flow cytometry on CHOS-BCMA cells, PE anti-human IgG detection
# [2] = molecular target: BCMA on CHOS cells stably expressing BCMA (CHOS-BCMA) (UniProt Q02223); assay: flow cytometry on CHOS-BCMA cells, PE mouse anti-human IgG, mean fluorescence intensity
binder,measurement,setting,value
B1,binding,[1],binds
same,binding,[2],binds
